Test results taken from patent US20090130105A1.
These are yes or no findings as the source states them, for the method shown. Some results given as binding are weak or reduced against the parent protein; the word gives no strength.

Protein sequences, listed by entry. Tags and fused reporters are not part of them. Lines headed by an entry give the natural chain unless they say otherwise; changes in a name come on top.
UniProt P08069: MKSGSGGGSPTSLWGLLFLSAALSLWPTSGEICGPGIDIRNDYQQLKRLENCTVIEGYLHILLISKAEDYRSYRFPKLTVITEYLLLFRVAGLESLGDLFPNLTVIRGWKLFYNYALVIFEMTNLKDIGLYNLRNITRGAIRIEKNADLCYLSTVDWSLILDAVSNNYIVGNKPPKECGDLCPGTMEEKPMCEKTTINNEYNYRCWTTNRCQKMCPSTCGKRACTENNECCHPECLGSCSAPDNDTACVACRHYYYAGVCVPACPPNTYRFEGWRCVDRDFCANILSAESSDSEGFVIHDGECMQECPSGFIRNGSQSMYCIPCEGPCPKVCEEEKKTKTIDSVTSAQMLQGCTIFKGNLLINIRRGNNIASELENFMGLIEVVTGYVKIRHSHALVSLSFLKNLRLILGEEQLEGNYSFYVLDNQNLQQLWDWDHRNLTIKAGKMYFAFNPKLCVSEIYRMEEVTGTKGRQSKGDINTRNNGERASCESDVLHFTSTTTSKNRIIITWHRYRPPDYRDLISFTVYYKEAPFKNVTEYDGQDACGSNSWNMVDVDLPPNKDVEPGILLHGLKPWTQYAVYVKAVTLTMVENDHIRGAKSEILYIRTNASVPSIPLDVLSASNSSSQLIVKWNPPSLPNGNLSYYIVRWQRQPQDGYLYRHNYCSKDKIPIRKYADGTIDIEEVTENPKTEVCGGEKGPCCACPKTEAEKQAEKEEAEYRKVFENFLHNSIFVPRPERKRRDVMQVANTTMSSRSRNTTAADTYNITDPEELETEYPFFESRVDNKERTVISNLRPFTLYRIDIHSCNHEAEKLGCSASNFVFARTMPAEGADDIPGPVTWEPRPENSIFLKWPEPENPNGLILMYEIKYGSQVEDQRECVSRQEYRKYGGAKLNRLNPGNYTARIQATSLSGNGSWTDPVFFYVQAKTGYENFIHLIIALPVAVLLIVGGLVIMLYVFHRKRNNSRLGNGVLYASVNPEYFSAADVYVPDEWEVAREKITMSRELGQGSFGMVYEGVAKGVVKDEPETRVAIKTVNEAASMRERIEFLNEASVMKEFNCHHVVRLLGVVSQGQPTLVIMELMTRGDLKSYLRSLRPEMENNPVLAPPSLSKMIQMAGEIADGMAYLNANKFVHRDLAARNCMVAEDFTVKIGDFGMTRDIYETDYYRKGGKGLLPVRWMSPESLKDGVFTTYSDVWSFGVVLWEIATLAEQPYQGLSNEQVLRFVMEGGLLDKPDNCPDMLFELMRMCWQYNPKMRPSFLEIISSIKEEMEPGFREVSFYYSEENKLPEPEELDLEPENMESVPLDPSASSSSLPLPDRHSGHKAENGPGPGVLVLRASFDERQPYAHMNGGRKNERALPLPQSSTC

Columns and labels:
[1] = biological target: hIGF-1R-Fc mutant SD008 (S257F) (human) (UniProt P08069); experiment: SPR, Fab over captured mutant; NE = KD within 2.5-fold of WT hIGF-1R-Fc
[2] = biological target: hIGF-1R-Fc mutant SD019 (E739W, L741F) (human) (UniProt P08069); experiment: as above

B1: M14-C03 Fab (Fab, V domains shown)
VH: EVQLLESGGGLVQPGGSLRLSCAASGFTFSKYMMSWVRQAPGKGLEWVSYISPSGGLTWYADSVKGRFTISRDNSKNTLYLQMNSLRAEDTAVYYCARDGARGYGMDVWGQGTTVTVSS
VL: DIQMTQSPATLSLSPGERATLSCRASQSVSSYLAWYQQKPGQAPRLLIYDASNRATGIPARFSGSGSGTDFTLTISSLEPEDFAVYYCQQRSNWPPEVTFGPGTKVDIK
- binding [1]: binds
- binding [2]: binds
